According to PubChem BioAssay AID540276 (National Center for Advancing Translational Sciences (NCATS), 2011):
Where “and” joins values, the source holds several entries; their conditions need not be identical. Equal entries are not always repeated. Hit rate of the full screen: of about 300,000 compounds, about 5,400 (1.8%) were called active. Inconclusive means that the source gave no clear call. Such entries were picked first, then a sample of the others. Calls follow the shape of the full dose curve; tested in HEK293 cells. Potencies of inconclusive entries are doubtful fits and often do not repeat.

Assay: qHTS for inhibitors of binding or entry into cells for Marburg Virus
Details: Marburg virus pseudotyped entry inhibition, cell reporter; series mostly up to 37.8 µM
Potency is read from the fitted curve at half-maximal effect.

Row | SMILES | Potency
1 | COc1cc(C=O)c(Br)cc1OC1CCCC1 | inactive
2 | O=C1c2ccccc2NC(c2ccccc2O)N1NS(=O)(=O)c1ccccc1 (stereo not drawn) | inconclusive: 7.94 µM [inhibitor, partial curve]
3 | CC(=O)Oc1oc(-c2ccccc2)nc1/C=N/c1ccccn1 | inactive
4 | O=C(CSc1nc2ccccc2[nH]1)c1ccco1 | inconclusive: 3.98 µM [activator, partial curve, poor fit]
5 | CCOc1cc(CNCCSc2nnnn2-c2ccccc2)cc(Cl)c1OC | inconclusive: 3.98 µM [inhibitor, full curve, poor fit]
6 | Cc1ccc(F)cc1NC(=O)Cc1ncc(C(F)(F)F)cc1Cl | inconclusive: 23.1 µM [inhibitor, single point]
7 | Cc1ccc(S(=O)(=O)/N=C2\C=C(Nc3cccc(C(=O)O)c3)C(=O)c3ccccc32)c(C)c1 | inconclusive: 35.5 µM [inhibitor, single point]
8 | Cc1ccc2cc(C)c(NCCO)nc2c1 | inconclusive: 11.2 µM [activator, partial curve]
9 | COc1ccc(-c2cc(-c3ccc(Br)cc3)nc3ncnn23)cc1OC | inconclusive: 1.41 µM [inhibitor, full curve, poor fit]
10 | Cc1cccn2c(=O)c3cc(C#N)c(=O)n(CC4CCCO4)c3nc12 (stereo not drawn) | inactive
11 | CCC(=O)Nc1cccc(-c2csc(-c3ccccc3)n2)c1 | inconclusive: 0.224 µM [inhibitor, full curve, poor fit]
12 | Brc1cc2c(cc1C1OCCCO1)OCO2 | inconclusive: 25.1 µM [activator, single point]
13 | CC1CN(c2ccccc2)NC1=O (stereo not drawn) | inactive
14 | Cc1ccccc1C(OCC(O)CN1CCCCC1CCO)c1ccccc1 (stereo not drawn) | inconclusive: 2.82 µM [inhibitor, full curve, poor fit]
15 | CCCCCCCCCCCCCCC[C@H](O)[C@H](N)CO | inconclusive: 12.6 µM [activator, partial curve] and inconclusive: 23.1 µM [inhibitor, single point]
16 | CC1CN(S(=O)(=O)c2cc(C(=O)NCCCN3CCCC3=O)ccc2Cl)CC(C)O1 (stereo not drawn) | active: 2.24 µM
17 | CCOc1ccc(OCC)c(NC(=O)CN(c2ccc(C)cc2)S(=O)(=O)c2c(C)noc2C)c1 | inconclusive: 7.08 µM [inhibitor, partial curve]
18 | CCCCn1nc(C(=O)Nc2ccc3c(c2)OCO3)c2ccccc2c1=O | inconclusive: 1 µM [inhibitor, full curve, poor fit]
19 | N#C/C(=C/c1ccc(N2CCOCC2)o1)c1ccc(Br)cc1 | inactive
20 | CC(C)(C)NC(=O)NC(=O)CN1CCN(c2cccc(Cl)c2)CC1 | inconclusive: 11.2 µM [inhibitor, partial curve, poor fit]
21 | Cn1c(=O)c2c(nc(SCC(=O)Nc3ccccc3N3CCCCC3)n2C)n(C)c1=O | inconclusive: 10.3 µM [inhibitor, partial curve, poor fit]
22 | COc1ccc(C)cc1NC(=O)C1CCN(C(=O)c2ccc(C(C)(C)C)cc2)CC1 | inconclusive: 5.62 µM [activator, single point]
23 | NC1=NC(=O)/C(=C\c2cccs2)S1 | inactive

Row | SMILES | Potency
24 | COc1cc(CC(=O)Nc2ccccc2N2CCCCC2)cc(OC)c1OC | inconclusive: 12.6 µM [inhibitor, partial curve, poor fit]
25 | C[N+](C)(C)CCO | inactive
26 | Cc1nc(-c2ccc(S(=O)(=O)N3CCN(C4c5ccccc5-c5ccccc54)CC3)s2)cs1 | inconclusive: 35.5 µM [activator, single point]
27 | CCN(CC)c1cc(C)c2cc(NC(=O)/C=C/c3ccc(C)cc3)ccc2n1 | inconclusive: 10 µM [inhibitor, partial curve, poor fit]
28 | CCCNC(=O)CC1C(=O)N(Cc2ccccc2)C(C)c2nc3ccccc3n21 (stereo not drawn) | inconclusive: 29.1 µM [activator, single point]
29 | COc1ccc(CN(C)Cc2nc3scc(-c4ccccc4)c3c(=O)[nH]2)cc1OC | inconclusive: 16.4 µM [inhibitor, partial curve, poor fit]
30 | Cc1ccc(CN(CC2CCCO2)C(=O)CN2C(=O)C(C(C)C)Oc3ccccc32)o1 (stereo not drawn) | inconclusive: 23.1 µM [inhibitor, partial curve, poor fit]
31 | CCOC(=O)N1CCN(C(=O)c2oc3ccc(S(=O)(=O)N4CCCCCC4)cc3c2C)CC1 | inactive
32 | COC(=O)c1ccccc1NC(=O)N1CSC[C@H]1C(=O)OC | inactive
33 | CCN(CC(=O)Nc1ccc2c(c1)OCCO2)C(=O)CCc1ccc(OC)cc1 | inactive
34 | Cc1[nH]c2ccccc2c1/C=N/Nc1nncn1N | inconclusive: 35.5 µM [inhibitor, single point]
35 | CSc1nnc(-c2sc3cc(C(F)(F)F)cnc3c2-c2ccccc2)n1C | active: 1.58 µM
36 | Cc1cc(NC(=S)Nc2cccc3ccccc23)n[nH]1 | inconclusive: 20 µM [activator, single point]
37 | Cc1csc(SCC(=O)NCc2cccs2)n1 | inconclusive: 8.2 µM [activator, partial curve, poor fit]
38 | CCCOc1cccc(-c2cc(C(=O)NNC(=S)NCC)c3ccccc3n2)c1 | inactive
39 | CCCN(CCC)C(=O)C1CCCN(S(=O)(=O)c2ccc3c(c2)oc(=O)n3C)C1 (stereo not drawn) | inactive
40 | O=C(c1ccc(S(=O)(=O)NCc2ccco2)cc1)N1CCN(Cc2ccc3c(c2)OCO3)CC1 | inactive
41 | Cc1cc(C)cc(-n2cc(C(=O)O)c(=O)cc2C)c1 | inconclusive: 14.1 µM [activator, single point]
42 | COC(=O)N[C@@H](c1cccc(F)c1)[C@]1(C(=O)OC)CCCC1=O | inactive
43 | CCOC1CC(C)(C)NC(=S)N1 (stereo not drawn) | inconclusive: 7.08 µM [activator, full curve, poor fit]
44 | CC(C)CC(=O)c1c[nH]c(C(=O)O)c1 | inconclusive: 35.5 µM [activator, single point]
45 | COc1cccc(C2C(C(=O)Nc3ccccc3)=C(C)Nc3nc(-c4ccccc4)nn32)c1 (stereo not drawn) | inconclusive: 7.08 µM [inhibitor, full curve, poor fit]
46 | CCn1ccc(C(=O)Nc2cccc(Cl)c2)n1 | inconclusive: 1.12 µM [activator, partial curve, poor fit]

Quoted at random: 4 compounds from above, in no set order.
Row | SMILES | Potency
25 | C[N+](C)(C)CCO | inactive
24 | COc1cc(CC(=O)Nc2ccccc2N2CCCCC2)cc(OC)c1OC | inconclusive: 12.6 µM [inhibitor, partial curve, poor fit]
44 | CC(C)CC(=O)c1c[nH]c(C(=O)O)c1 | inconclusive: 35.5 µM [activator, single point]
31 | CCOC(=O)N1CCN(C(=O)c2oc3ccc(S(=O)(=O)N4CCCCCC4)cc3c2C)CC1 | inactive

(further entries)

Row | SMILES | Potency
47 | CC1CCCC(NS(=O)(=O)c2cc(Br)cnc2N)C1C (stereo not drawn) | inconclusive: 11.2 µM [inhibitor, single point]
48 | CS(=O)(=O)N(CC(=O)NCCSc1ccccc1)c1cc(C(F)(F)F)ccc1Cl | inactive
49 | CC(=O)NS(=O)(=O)c1ccc(NC(=O)CCc2ccccc2)cc1 | inconclusive: 0.0794 µM [inhibitor, full curve, poor fit]
50 | CC(NC(=O)c1ccc(NS(C)(=O)=O)cc1)c1ccccc1 (stereo not drawn) | inconclusive: 0.282 µM [activator, partial curve, poor fit]
51 | Cc1ccc2c(C)c(C(=O)N(C)CCC3CCCCO3)oc2c1C (stereo not drawn) | inconclusive: 35.5 µM [inhibitor, single point]
52 | CCOC(=O)C1CN(S(=O)(=O)c2ccc(OC)cc2)c2cc(Cl)ccc2O1 (stereo not drawn) | inconclusive: 7.08 µM [inhibitor, full curve, poor fit]
53 | CCOc1ccccc1Oc1cn[nH]c1-c1ccc(O)cc1O | inconclusive: 17.8 µM [inhibitor, single point]
54 | CCc1ccc(NC(=O)N2CCC(c3ccccc3)C2)cc1 (stereo not drawn) | inconclusive: 11.2 µM [inhibitor, partial curve, poor fit]
55 | Cc1ccccc1-n1c(C)n[nH]c1=S | inconclusive: 4.11 µM [inhibitor, single point]
56 | C=C1CC(C(=O)N/N=C/c2ccccc2)C1 | inconclusive: 1.26 µM [inhibitor, partial curve, poor fit]
57 | COCOc1cc(OC)ccc1C(=O)C=Cc1ccc2c(c1)OCO2 | inconclusive: 7.5 µM [inhibitor, partial curve, poor fit]
58 | COc1ccccc1CN1CCCC(C(=O)c2ccccc2OC)C1 (stereo not drawn) | inconclusive: 2.82 µM [inhibitor, full curve, poor fit]
59 | COC(=O)C1=C(C)N(CCC(C)O)C(=O)N(C(C)=O)C1c1ccccc1 (stereo not drawn) | inactive
60 | CCOC(=O)c1nn(C)c2[nH]c(=O)n(C)c(=O)c12 | inconclusive: 2.51 µM [activator, partial curve, poor fit]
61 | O=C(NNC(=O)c1cc(-c2cccc(Br)c2)nc2ccccc12)c1csc(N2CCOCC2)n1 | inactive
62 | COc1ccc(NC(=O)CSc2c3c(nc4ccccc24)CCCC3)c(OC)c1 | inconclusive: 11.2 µM [inhibitor, partial curve, poor fit]
63 | CCc1ccc(OC(C)C(=O)Nc2c(C(=O)c3ccccc3)oc3ccccc23)cc1 (stereo not drawn) | inconclusive: 7.94 µM [inhibitor, full curve, poor fit]
64 | COc1ccc2cc3cc(C(=O)NCCC(C)C)oc3nc2c1 | inactive
65 | Cc1[nH]n(C(N)=S)c(=O)c1N=Nc1ccc(S(=O)(=O)N2CCCC2)cc1 | inactive
66 | CCOC(=O)CC(NC(=O)c1cc2cc(Br)ccc2oc1=O)c1cccc([N+](=O)[O-])c1 (stereo not drawn) | inconclusive: 6.31 µM [inhibitor, single point]
67 | CC(=O)COc1ccc2c(C)c(C)c(=O)oc2c1 | inconclusive: 3.55 µM [activator, partial curve, poor fit]
68 | CC(NC(=O)c1ccc(CS(=O)(=O)Cc2ccccc2F)o1)c1ccc2c(c1)OCCO2 (stereo not drawn) | inactive
